Data taken from US8481679B2, “Immobilizing an entity in a desired orientation on a support material” (Arizona Board of Regents Acting on behalf of Arizona State …, priority 2007, dated 2013).

experiment: Corning Epic immobilization of candidate peptides to microplate wells without carbonic anhydrase; conditions: 24 replicates, BMPH linker

Wavelength shift on immobilization of peptide to Epic well surface, relatively low wavelength shift:
CA3: 20-residue candidate attachment peptide for carbonic anhydrase, C-terminal glycine-serine-cysteine; sequence only in FIG. 6A (HKHFFHHWHWFHKRRWFGSC; CA3 (Carbonic Anhydrase Peptide 3))
CA12: 20-residue candidate attachment peptide for carbonic anhydrase, C-terminal glycine-serine-cysteine; sequence only in FIG. 6A (SIGIYGHAIARPGGWYFGSC; CA12 (Carbonic Anhydrase Peptide 12))
CA1: 20-residue candidate attachment peptide for carbonic anhydrase, C-terminal glycine-serine-cysteine; sequence only in FIG. 6A (FNAPIWWYIYPRHVRHAGSC; CA1 (Carbonic Anhydrase Peptide 1))
CA2: 20-residue candidate attachment peptide for carbonic anhydrase, C-terminal glycine-serine-cysteine; sequence only in FIG. 6A (FRNFPVPVIFRYLNPWPGSC; CA2 (Carbonic Anhydrase Peptide 2))

Some entries repeat one wording, which the source may state once for all of them.
